Source: PubChem BioAssay AID504842 (National Center for Advancing Translational Sciences (NCATS), 2011)
Hit rate of the full screen: of about 330,000 compounds, about 100 (0.03%) were called active. Inconclusive means that the source gave no clear call. Such entries were picked first, then a sample of the others. The call rests on the fitted dose curve; in most records, active means well fitted inhibition curve with a large enough effect; inconclusive means small, poorly fitted or top-dose-only effect; inactive means flat fitted curve, though single readings scatter. Potencies beside an inconclusive call are fits to weak or partial responses and may not hold up.

test system: Chaperonin Mm-Cpn (Methanococcus maripaludis); assay: Inhibitors of TCP-1 ring complex (TRiC) of Methanococcus maripaludis (MmCpn): qHTS; details: purified Mm-Cpn ATPase, ADP Transcreener TR-FRET; series mostly up to 76.9 µM; activity, negative = inhibition: at the top concentration; further: nearly all actives have a fitted effect of over 80% in size;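 on Potency: enzyme at 25 nM with ATP substrate at 10 µM during the reaction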
How it was run: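 Measured: ADP formation by purified Mm-CPN. Conditions: 25 nM protein, 10 uM ATP, Tris pH 7.4 with Mg2+, K+ and DTT, 37°C for 30 min. Detection: Transcreener HTRF after 30 min at room temperature.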
On the % scale 0 is the no-effect control and ±100 the full control effect; potency means the concentration at half of the fitted maximal effect.

Structure (SMILES)	Potency	activity, negative = inhibition
CCC(=O)N1CCc2cc(Br)cc(S(=O)(=O)N(C)c3ccc(OC)cc3OC)c21	inconclusive: 355 µM [inhibitor, partial curve, poor fit]	
CNC(=O)/C(C#N)=C/c1ccc(-c2ccc(OC)cc2[N+](=O)[O-])o1		inactive: -0.883%
COc1ccc(CNC(=O)c2ccc3c(c2)N(C)C(=O)CS3=O)cc1 (stereo not drawn)	inconclusive: 89.1 µM [inhibitor, single point]	
O=C(NCc1cccc(C(F)(F)F)c1)C1CC(c2c(Cl)cccc2Cl)=NO1 (stereo not drawn)	inconclusive: 56.2 µM [inhibitor, single point]	
Cc1c(NC(=S)SCc2ccccc2)c(=O)n(-c2ccccc2)n1C	inconclusive: 70.8 µM [inhibitor, single point]	
Cc1cc(C)c(C)c(OCCOCCNCc2ccccc2)c1	inconclusive: 20 µM [inhibitor, single point]	
O=C(CSc1cccc[n+]1[O-])c1ccccc1Br		inactive: 1.46%
Cc1ccc(NC(=O)c2ccc(S(=O)(=O)NCc3cccnc3)cc2)c(C)c1	inconclusive: 5.62 µM [inhibitor, single point]	
CC(=O)Nc1ccc(S(=O)(=O)NCC(=O)N2CCN(S(=O)(=O)c3cccs3)CC2)cc1		inactive: 2.02%
C#CCOCCOCCOCCNc1nc(N2CCN(C(=O)CCCCCCCCCCNC(=O)[C@H]([C@@H](C)CC)n3cc(CCCCCN)nn3)CC2)nc(N2CCN(C(=O)CCCCCCCCCCNC(=O)[C@@H]([C@H](C)CC)n3cc(CCCCCN)nn3)CC2)n1	inconclusive: 56.2 µM [inhibitor, single point]	
CSc1nc(SCC(=O)NCc2ccco2)c2c3c(sc2n1)COC(C)(C)C3		inactive: -6.85%
O=C(Nc1cc(-c2nc3ncccc3o2)ccc1Cl)c1ccc([N+](=O)[O-])o1		inactive: 1.82%
CC1CCN(C(=O)Cn2c(=O)oc3cc(S(=O)(=O)N4CCCCC4)ccc32)CC1	inconclusive: 14.1 µM [inhibitor, single point]	
O=C(N/N=C/c1coc2ccc(Cl)cc2c1=O)c1cc(O)cc(O)c1		inactive: 2.96%
COc1ccc(S(=O)(=O)N2CCOCC2)cc1OC	inconclusive: 56.2 µM [inhibitor, single point]	
Oc1ccc(Br)cc1CNc1ccccn1		inactive: 2.24%
COc1ccc(-c2nc(-c3cccs3)c(-c3cccs3)[nH]2)cc1OC	inconclusive: 56.2 µM [inhibitor, partial curve]	
COc1ccc(C2/C(=C(/O)c3ccc(C)cc3)C(=O)C(=O)N2CCCN2CCOCC2)cc1 (stereo not drawn)	inconclusive: 112 µM [inhibitor, single point]	

Another view of some results above.
Structure (SMILES),Potency,"activity, negative = inhibition"
O=C(Nc1cc(-c2nc3ncccc3o2)ccc1Cl)c1ccc([N+](=O)[O-])o1,,inactive: 1.82%
COc1ccc(S(=O)(=O)N2CCOCC2)cc1OC,"inconclusive: 56.2 µM [inhibitor, single point]",
